Source: publication PMC2288786 (BMC Structural Biology, 2008)

System: calmodulin
Assay: Small-angle X-ray scattering of free CaM and complex
Design: species or system vertebrate
Details: SAXS, 5-fold molar excess of peptide in complex samples

For calmodulin [CaM], the “Dmax, maximum size” value (GNOM) was 7.0 ± 0.5 nm, the “Rg, radius of gyration” value (Guinier approximation) was 2.22 ± 0.05 nm and the “Vp, excluded volume” value was 34 ± 2 nm^3.
